The list shows a part of the results.
Legend:
Assay in all cases: log2 fold change, soluble protein after heating vs DMSO (PISA); higher = thermal stabilisation; K562 lysate, 10 uM; active = over 0.2 and 3.5 SD of the protein, either way, in both replicates (recomputed)
vemurafenib = compound: CCCS(=O)(=O)Nc1ccc(F)c(C(=O)c2c[nH]c3ncc(-c4ccc(Cl)cc4)cc23)c1F [vemurafenib]
Procedure, shortened: (§1)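 Quantification was by TMTpro 16plex LC-MS/MS with equalised channel sums, applied to the supernatant after 21,000xg for 90 min. Samples were crude K562 extract at 1 mg/mL protein in PBS pH 7.4 with 1 mM MgCl2, treated with 10 μM compound for 30 min, heated for 3 min across 48°C-58°C, pooled and brought to 0.5% NP-40 at 4°C. Values are log-two fold changes in thermal stability relative to solvent controls, from duplicates.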

Amino acid sequences for entries named in this document (tags omitted). A change or cut given only in a name is not applied to a line headed by its entry.
UniProt Q15027: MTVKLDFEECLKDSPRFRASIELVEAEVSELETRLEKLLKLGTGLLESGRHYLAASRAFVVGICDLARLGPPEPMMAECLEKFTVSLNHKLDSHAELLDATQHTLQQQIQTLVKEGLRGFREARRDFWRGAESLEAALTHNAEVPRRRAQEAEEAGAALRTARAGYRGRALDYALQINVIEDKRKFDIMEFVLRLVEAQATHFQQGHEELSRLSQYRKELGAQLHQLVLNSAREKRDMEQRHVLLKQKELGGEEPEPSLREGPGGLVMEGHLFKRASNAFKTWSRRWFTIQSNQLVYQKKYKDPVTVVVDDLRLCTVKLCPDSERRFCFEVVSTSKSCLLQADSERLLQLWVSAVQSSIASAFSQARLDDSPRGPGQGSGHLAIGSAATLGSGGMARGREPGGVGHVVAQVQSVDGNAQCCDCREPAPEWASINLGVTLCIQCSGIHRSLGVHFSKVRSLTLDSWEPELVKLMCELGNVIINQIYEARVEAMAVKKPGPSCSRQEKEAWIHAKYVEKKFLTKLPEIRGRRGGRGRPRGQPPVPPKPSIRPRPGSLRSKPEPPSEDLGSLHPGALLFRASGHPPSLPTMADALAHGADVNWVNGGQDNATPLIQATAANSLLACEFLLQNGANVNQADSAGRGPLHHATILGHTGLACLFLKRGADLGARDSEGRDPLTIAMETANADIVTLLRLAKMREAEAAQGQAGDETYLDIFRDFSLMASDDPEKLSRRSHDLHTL
A0A494C071, A0A494C071, UniProt A0A494C071, whole entry, looked up: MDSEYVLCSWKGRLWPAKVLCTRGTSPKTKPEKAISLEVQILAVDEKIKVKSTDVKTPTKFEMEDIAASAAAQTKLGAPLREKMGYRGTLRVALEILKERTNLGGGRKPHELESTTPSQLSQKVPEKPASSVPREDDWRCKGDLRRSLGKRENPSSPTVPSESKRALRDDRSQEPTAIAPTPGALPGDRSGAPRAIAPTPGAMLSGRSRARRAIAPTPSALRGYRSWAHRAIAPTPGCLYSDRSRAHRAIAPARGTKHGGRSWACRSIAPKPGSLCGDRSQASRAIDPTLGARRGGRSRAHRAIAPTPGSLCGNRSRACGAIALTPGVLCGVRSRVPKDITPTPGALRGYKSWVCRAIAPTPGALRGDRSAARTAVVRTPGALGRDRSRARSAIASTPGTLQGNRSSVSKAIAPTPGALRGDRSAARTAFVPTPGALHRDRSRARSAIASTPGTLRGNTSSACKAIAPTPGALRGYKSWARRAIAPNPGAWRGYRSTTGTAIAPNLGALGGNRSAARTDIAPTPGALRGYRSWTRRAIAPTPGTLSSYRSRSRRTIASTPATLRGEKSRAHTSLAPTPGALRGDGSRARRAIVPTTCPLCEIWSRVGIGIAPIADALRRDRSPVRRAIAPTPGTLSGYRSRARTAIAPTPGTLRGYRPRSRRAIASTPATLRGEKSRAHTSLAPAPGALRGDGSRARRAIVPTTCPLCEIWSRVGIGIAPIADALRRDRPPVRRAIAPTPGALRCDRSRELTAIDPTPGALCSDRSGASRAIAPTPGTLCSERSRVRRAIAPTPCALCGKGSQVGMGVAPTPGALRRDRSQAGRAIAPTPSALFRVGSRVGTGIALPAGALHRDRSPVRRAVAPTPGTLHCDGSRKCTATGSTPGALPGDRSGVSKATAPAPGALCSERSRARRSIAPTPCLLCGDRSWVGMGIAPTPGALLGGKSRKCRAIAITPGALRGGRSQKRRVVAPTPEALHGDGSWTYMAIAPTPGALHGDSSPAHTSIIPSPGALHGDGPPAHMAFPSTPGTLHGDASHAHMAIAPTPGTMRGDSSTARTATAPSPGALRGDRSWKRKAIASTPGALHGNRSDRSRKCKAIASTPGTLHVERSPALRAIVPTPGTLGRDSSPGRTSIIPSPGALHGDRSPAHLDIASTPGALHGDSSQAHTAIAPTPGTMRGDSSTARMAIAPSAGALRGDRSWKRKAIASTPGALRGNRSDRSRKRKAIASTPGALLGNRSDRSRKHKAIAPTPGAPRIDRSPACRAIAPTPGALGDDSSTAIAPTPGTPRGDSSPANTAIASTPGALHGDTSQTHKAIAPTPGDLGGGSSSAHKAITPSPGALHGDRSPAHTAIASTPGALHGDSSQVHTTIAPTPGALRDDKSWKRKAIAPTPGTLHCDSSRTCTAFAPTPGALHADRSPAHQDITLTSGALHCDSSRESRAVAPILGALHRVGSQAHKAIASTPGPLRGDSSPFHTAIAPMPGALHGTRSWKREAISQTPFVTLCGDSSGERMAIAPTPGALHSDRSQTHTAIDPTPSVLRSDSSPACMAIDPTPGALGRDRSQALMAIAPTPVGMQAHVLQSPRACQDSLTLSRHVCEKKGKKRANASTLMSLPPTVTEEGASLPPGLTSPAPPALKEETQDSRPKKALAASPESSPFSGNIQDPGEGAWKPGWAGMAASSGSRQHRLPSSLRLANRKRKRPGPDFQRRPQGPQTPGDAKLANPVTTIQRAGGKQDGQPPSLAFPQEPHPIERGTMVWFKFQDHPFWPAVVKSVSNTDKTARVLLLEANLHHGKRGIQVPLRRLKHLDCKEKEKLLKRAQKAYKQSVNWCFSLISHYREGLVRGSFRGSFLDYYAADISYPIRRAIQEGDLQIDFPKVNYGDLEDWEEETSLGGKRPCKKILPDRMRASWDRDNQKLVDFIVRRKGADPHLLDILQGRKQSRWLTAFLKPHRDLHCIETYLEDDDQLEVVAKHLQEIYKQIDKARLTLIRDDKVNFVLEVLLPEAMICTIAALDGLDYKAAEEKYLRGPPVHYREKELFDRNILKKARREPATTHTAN
UniProt Q5T3U5: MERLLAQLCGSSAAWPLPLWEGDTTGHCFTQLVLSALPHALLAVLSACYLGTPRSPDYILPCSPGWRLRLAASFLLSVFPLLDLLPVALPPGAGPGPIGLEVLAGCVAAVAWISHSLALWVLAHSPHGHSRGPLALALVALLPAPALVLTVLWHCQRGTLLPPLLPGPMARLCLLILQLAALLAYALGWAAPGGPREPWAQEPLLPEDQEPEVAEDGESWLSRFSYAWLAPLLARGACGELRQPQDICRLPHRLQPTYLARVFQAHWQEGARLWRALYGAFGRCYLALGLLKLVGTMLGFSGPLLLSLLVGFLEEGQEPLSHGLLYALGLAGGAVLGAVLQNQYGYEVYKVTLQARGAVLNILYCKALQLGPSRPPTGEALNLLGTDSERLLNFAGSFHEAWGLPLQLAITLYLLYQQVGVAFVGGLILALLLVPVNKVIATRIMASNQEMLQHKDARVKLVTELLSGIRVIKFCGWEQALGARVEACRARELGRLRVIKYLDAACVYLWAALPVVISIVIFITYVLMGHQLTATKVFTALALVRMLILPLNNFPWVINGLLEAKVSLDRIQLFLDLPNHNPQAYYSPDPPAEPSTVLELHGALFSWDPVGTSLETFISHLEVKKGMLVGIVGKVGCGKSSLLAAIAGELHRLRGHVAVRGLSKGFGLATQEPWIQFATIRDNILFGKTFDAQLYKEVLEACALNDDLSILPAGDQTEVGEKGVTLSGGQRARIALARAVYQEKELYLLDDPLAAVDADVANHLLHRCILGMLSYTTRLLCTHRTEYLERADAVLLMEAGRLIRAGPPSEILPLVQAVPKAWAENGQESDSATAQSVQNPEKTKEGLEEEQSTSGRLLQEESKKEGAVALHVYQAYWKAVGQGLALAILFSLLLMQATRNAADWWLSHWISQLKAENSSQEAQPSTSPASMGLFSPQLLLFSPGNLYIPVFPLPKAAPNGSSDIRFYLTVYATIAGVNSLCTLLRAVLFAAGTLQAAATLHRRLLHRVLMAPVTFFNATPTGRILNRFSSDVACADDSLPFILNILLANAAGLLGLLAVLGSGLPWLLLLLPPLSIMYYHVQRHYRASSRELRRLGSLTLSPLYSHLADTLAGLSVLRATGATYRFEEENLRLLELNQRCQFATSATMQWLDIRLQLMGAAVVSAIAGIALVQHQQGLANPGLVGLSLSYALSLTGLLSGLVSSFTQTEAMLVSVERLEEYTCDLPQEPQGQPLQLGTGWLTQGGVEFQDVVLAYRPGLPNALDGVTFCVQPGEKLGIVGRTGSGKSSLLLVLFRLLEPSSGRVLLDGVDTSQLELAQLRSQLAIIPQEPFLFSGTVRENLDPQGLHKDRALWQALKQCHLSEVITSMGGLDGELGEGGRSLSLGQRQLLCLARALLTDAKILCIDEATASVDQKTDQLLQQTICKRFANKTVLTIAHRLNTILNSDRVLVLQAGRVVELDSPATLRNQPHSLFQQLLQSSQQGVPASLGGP
UniProt Q8N6N7: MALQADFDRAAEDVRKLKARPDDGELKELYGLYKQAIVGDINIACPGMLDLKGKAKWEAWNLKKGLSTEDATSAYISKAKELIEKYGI
UniProt Q96AP0: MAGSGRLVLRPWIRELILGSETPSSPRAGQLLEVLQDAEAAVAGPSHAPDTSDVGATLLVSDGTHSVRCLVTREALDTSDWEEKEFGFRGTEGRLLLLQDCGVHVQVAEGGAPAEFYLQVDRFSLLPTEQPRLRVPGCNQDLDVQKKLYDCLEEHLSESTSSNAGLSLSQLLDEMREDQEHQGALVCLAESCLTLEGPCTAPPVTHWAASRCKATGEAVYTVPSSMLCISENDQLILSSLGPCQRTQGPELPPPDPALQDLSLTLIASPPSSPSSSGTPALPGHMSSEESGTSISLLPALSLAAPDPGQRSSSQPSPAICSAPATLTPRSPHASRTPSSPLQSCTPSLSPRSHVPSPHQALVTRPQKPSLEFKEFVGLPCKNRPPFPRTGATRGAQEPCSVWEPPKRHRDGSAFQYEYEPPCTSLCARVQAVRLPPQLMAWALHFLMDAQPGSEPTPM
UniProt O14678: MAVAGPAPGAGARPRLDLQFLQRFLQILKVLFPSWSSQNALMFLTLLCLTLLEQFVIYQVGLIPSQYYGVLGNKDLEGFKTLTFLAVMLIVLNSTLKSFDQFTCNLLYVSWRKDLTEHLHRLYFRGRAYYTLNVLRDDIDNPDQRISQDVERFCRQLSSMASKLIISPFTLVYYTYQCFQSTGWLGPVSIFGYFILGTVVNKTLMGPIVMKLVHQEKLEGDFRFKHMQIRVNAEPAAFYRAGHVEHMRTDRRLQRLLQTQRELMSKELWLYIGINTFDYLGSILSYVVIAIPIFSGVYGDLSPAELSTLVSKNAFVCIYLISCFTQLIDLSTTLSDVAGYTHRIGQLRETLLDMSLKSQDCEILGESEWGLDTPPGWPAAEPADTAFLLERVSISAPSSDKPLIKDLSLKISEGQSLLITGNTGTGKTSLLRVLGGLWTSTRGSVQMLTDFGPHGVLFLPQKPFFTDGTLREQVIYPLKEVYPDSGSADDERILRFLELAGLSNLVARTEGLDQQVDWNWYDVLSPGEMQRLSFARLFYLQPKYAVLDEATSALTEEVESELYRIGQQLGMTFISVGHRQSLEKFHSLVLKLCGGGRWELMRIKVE
UniProt Q6UXT9: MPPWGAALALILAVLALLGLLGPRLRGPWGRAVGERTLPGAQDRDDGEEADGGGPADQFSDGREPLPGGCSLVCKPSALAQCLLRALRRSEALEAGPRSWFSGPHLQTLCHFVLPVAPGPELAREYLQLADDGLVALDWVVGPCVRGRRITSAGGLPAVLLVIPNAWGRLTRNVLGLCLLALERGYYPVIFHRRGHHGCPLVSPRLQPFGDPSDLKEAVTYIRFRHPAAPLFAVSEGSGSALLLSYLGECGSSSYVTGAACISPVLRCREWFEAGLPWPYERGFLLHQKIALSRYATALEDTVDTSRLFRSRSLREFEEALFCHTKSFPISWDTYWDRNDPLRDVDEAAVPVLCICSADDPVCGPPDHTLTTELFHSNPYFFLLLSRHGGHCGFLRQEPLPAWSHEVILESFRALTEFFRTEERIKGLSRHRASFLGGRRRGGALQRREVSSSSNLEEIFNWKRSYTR
UniProt Q9BTE6: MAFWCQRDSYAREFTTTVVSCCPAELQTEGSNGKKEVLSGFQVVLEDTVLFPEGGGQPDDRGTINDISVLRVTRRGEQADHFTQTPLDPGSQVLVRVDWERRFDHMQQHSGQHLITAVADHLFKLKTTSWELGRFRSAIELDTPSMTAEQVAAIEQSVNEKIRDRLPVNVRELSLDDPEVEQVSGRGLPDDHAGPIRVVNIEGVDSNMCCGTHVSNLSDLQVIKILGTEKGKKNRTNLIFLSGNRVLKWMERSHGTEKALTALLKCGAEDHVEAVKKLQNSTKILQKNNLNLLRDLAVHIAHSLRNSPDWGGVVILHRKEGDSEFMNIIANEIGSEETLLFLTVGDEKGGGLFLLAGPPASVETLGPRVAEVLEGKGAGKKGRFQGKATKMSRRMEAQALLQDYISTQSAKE

[1] = compound: CCCS(=O)(=O)Nc1ccc(F)c(C(=O)c2c[nH]c3ncc(Cl)cc23)c1F
Procedure, shortened: as §1

barasertib = compound: CCN(CCCOc1ccc2c(Nc3cc(CC(=O)Nc4cccc(F)c4)[nH]n3)ncnc2c1)CCOP(=O)(O)O [barasertib]
Procedure, shortened: as §1

[2] = compound: CC[C@@H]1C(=O)N(C)c2cnc(Nc3ccc(C(=O)NC4CCN(C)CC4)cc3OC)nc2N1C1CCCC1
Procedure, shortened: as §1

volasertib = compound: CC[C@@H]1C(=O)N(C)c2cnc(Nc3ccc(C(=O)N[C@H]4CC[C@H](N5CCN(CC6CC6)CC5)CC4)cc3OC)nc2N1C(C)C [volasertib]
Procedure, shortened: as §1

[3] = compound: CCn1c(C(=O)N(C2CC2)C2CC2)cc2c3c(ncn3C)c(Nc3cc(C)n(C)n3)nc21
Procedure, shortened: as §1

[4] = compound: CCn1cc(-c2ccnc3[nH]c(-c4cccc(CN(C)C)c4)cc23)c(-c2ccc(NC(=O)N(C)C)cc2)n1
Procedure, shortened: as §1

[5] = compound: CN1CCC(CNc2ccc3ncc(-c4cccc(OC(F)(F)F)c4)n3n2)CC1
Procedure, shortened: as §1

saracatinib = compound: CN1CCN(CCOc2cc(OC3CCOCC3)c3c(Nc4c(Cl)ccc5c4OCO5)ncnc3c2)CC1 [saracatinib]
Procedure, shortened: as §1

sotrastaurin = compound: CN1CCN(c2nc(C3=C(c4c[nH]c5ccccc45)C(=O)NC3=O)c3ccccc3n2)CC1 [sotrastaurin]
Procedure, shortened: as §1

| Target | log2 fold change (vemurafenib) | log2 fold change [1] | log2 fold change (barasertib) | log2 fold change [2] | log2 fold change (volasertib) | log2 fold change [3] | log2 fold change [4] | log2 fold change [5] | log2 fold change (saracatinib) | log2 fold change (sotrastaurin) |
| --- | --- | --- | --- | --- | --- | --- | --- | --- | --- | --- |
| ABRAXAS1 (UniProt Q6UWZ7) | inactive: 0.009 | inactive: -0.016 | inactive: 0.046 | inactive: 0.082 | inactive: -0.034 | inactive: -0.007 | inactive: -0.072 | inactive: 0.009 | inactive: 0.12 | inactive: 0.023 |
| ACAP1 (UniProt Q15027) | – | – | – | – | – | – | inactive: -0.14 | inactive: -0.034 | – | inactive: 0.134 |
| ABHD13 (UniProt Q7L211) | inactive: 0.069 | inactive: -0.016 | inactive: 0.102 | inactive: -0.107 | inactive: 0.06 | – | active: -0.543 | inactive: 0.077 | inactive: 0.179 | inactive: -0.031 |
| A0A494C071, A0A494C071 | – | – | inactive: 0.186 | – | – | – | inactive: -0.212 | inactive: 0.083 | inactive: -0.053 | – |
| ACBD5 (UniProt Q5T8D3) | – | inactive: 0.029 | – | – | inactive: -0.346 | inactive: -0.148 | inactive: -0.302 | inactive: 0.022 | inactive: 0.16 | – |
| ABCC10 (UniProt Q5T3U5) | – | – | – | – | – | inactive: 0.048 | inactive: 0.069 | inactive: 0.095 | inactive: 0.124 | – |
| ABCC3 isoform 4 (UniProt O15438) | – | inactive: 0.033 | – | – | inactive: 0.01 | inactive: 0.061 | – | – | inactive: 0.035 | inactive: 0.03 |
| ABL1 isoform 2 (UniProt P00519) | inactive: 0.05 | inactive: 0.125 | inactive: 0.031 | inactive: -0.03 | inactive: -0.012 | inactive: -0.048 | inactive: 0.156 | inactive: -0.097 | – | inactive: -0.012 |
| ABHD11 (UniProt Q8NFV4) | inactive: 0.062 | inactive: -0.051 | inactive: 0.093 | inactive: -0.029 | inactive: -0.082 | inactive: 0.028 | inactive: -0.109 | inactive: 0.024 | inactive: -0.026 | inactive: -0.016 |
| ABTB2 (UniProt Q8N961) | – | – | inactive: 0.224 | – | – | inactive: -0.058 | inactive: -0.708 | inactive: -0.126 | – | – |
| ACBD7 (UniProt Q8N6N7) | – | inactive: 0.056 | – | – | inactive: 0.035 | – | – | – | inactive: 0.017 | – |
| ABCA7 (UniProt Q8IZY2) | – | – | – | – | – | – | – | – | inactive: -0.042 | inactive: -0.056 |
| ACAD10 isoform 5 (UniProt Q6JQN1) | – | inactive: 0.049 | – | inactive: -0.06 | inactive: -0.05 | inactive: -0.023 | inactive: 0.062 | inactive: 0.107 | inactive: -0.009 | inactive: -0.039 |
| ABHD18 (UniProt Q0P651) | – | – | – | inactive: -0.018 | – | – | – | – | – | – |
| ACD (UniProt Q96AP0) | – | – | – | – | – | inactive: -0.39 | inactive: 0.356 | inactive: -0.285 | – | inactive: 0.04 |
| ABCA4 (UniProt P78363) | inactive: 0.069 | inactive: -0.067 | inactive: 0.016 | inactive: 0.119 | inactive: -0.017 | inactive: -0.093 | inactive: -0.29 | inactive: 0.091 | inactive: 0.006 | inactive: -0.032 |
| ABCD4 (UniProt O14678) | – | inactive: -0.211 | – | – | inactive: -0.195 | – | – | – | – | – |
| ABCA8 isoform 3 (UniProt O94911) | – | inactive: -0.063 | – | – | inactive: 0.005 | – | inactive: 0.035 | inactive: -0.016 | – | inactive: 0.268 |
| ABHD15 (UniProt Q6UXT9) | inactive: 0 | inactive: 0.023 | – | inactive: -0.026 | inactive: 0.002 | inactive: -0.006 | inactive: -0.134 | inactive: 0.065 | – | – |
| AARSD1 (UniProt Q9BTE6) | – | inactive: -0.009 | inactive: -0.019 | inactive: -0.188 | inactive: -0.046 | – | inactive: -0.182 | inactive: 0.074 | inactive: -0.025 | – |
| ABCE1 (UniProt H0Y990) | inactive: 0.105 | – | inactive: -0.058 | inactive: -0.064 | – | inactive: -0.176 | inactive: 0.068 | inactive: -0.043 | – | inactive: 0.02 |

As a working copy, some entries already given:

| Target | log2 fold change (vemurafenib) | log2 fold change [1] | log2 fold change (barasertib) | log2 fold change [2] | log2 fold change (volasertib) | log2 fold change [3] | log2 fold change [4] | log2 fold change [5] | log2 fold change (saracatinib) | log2 fold change (sotrastaurin) |
| --- | --- | --- | --- | --- | --- | --- | --- | --- | --- | --- |
| ACAD10 isoform 5 (UniProt Q6JQN1) | – | inactive: 0.049 | – | inactive: -0.06 | inactive: -0.05 | inactive: -0.023 | inactive: 0.062 | inactive: 0.107 | inactive: -0.009 | inactive: -0.039 |
| ABHD18 (UniProt Q0P651) | – | – | – | inactive: -0.018 | – | – | – | – | – | – |
| ACD (UniProt Q96AP0) | – | – | – | – | – | inactive: -0.39 | inactive: 0.356 | inactive: -0.285 | – | inactive: 0.04 |
| ABCA4 (UniProt P78363) | inactive: 0.069 | inactive: -0.067 | inactive: 0.016 | inactive: 0.119 | inactive: -0.017 | inactive: -0.093 | inactive: -0.29 | inactive: 0.091 | inactive: 0.006 | inactive: -0.032 |
| ABCD4 (UniProt O14678) | – | inactive: -0.211 | – | – | inactive: -0.195 | – | – | – | – | – |

From the supplement of paper PMC10849652
